Experimental data: PubChem BioAssay AID1259405 (NCATS, 2018)

Assay: 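Mouse-designed siRNAs used to find CHO productivity engineering targets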 (primary screen)
Cells: Chinese hamster CHO-K1 ovary cells with stable secreted eGFP expression
Knock-down reagent: single siRNA against mouse genes, 0.8 pmol siRNA per well (2 µl of 400 nM stock)
Timing: 3 days
Measured: 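Per-well intracellular GFP measured by laser scanning cytometry, plus viability from ATP luminescence, each relative to plate median of non-targeting control wells, in %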
Direction: GFP, % of control: higher = more GFP per well, higher productivity; viability (ATP), % of control: higher = more viable cells (more ATP)
Active means: 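Called active when intracellular GFP, relative to negative control, is at or above 120%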
In all, the deposit lists about 50,000 reagents; below is an unselected part. Of all reagents, about 4,000 (8%) are marked active. 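Mouse siRNA library applied to hamster cells; one well for each siRNA.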 Unmarked entries are inactive. Reagents against one gene are numbered here.

target gene,reagent,"GFP, % of control","viability (ATP), % of control"
Rnf215 (GeneID 71673),1,51.5,69.4
Rnf215 (GeneID 71673),2,47.8,48.1
Rnf215 (GeneID 71673),3,46.5,62
Ldah (GeneID 68832),1,81.4,68.6
Ldah (GeneID 68832),2,118,78.3
Ldah (GeneID 68832),3,135 (active),90.7
Csrp2 (GeneID 13008),1,134 (active),88.2
Csrp2 (GeneID 13008),2,111,110
Elobl (GeneID 217066),1,151 (active),166
Elobl (GeneID 217066),2,63.5,76.6
Elobl (GeneID 217066),3,71.9,89.6
Ralgps1 (GeneID 241308),1,68.3,78.7
Ralgps1 (GeneID 241308),2,62.6,86.6
Ralgps1 (GeneID 241308),3,45.2,58.1
Plekhh1 (GeneID 211945),1,78.7,104
Plekhh1 (GeneID 211945),2,128 (active),74.7
Plekhh1 (GeneID 211945),3,67.3,90.5
Pcdhga2 (GeneID 93710),1,62.4,69.1
Pcdhga2 (GeneID 93710),2,76,110
Pcdhga2 (GeneID 93710),3,80.7,66.2
Ptn (GeneID 19242),1,0.00754,113
Ptn (GeneID 19242),2,84.7,79.7
Cmklr1 (GeneID 14747),1,135 (active),66.5
Cmklr1 (GeneID 14747),2,50.9,63.7
Cmklr1 (GeneID 14747),3,85.8,61.5
Dhdds (GeneID 67422),1,86.1,93
Dhdds (GeneID 67422),2,65.4,113
Dhdds (GeneID 67422),3,86.2,96.3
Amfr (GeneID 23802),1,68.3,65.1
Amfr (GeneID 23802),2,70.7,82.3
Amfr (GeneID 23802),3,93.4,106
Nudcd3 (GeneID 209586),1,82.9,92.4
Nudcd3 (GeneID 209586),2,53.8,60
Nudcd3 (GeneID 209586),3,54.9,88.7
Ctsq (GeneID 104002),1,116,69.3
Ctsq (GeneID 104002),2,70.3,62.8
Ctsq (GeneID 104002),3,69.4,68
Suox (GeneID 211389),1,89.8,84.3
Suox (GeneID 211389),2,101,68.1
Suox (GeneID 211389),3,104,81.5
Ceacam9 (GeneID 26368),1,57.2,58.8
Ceacam9 (GeneID 26368),2,54.5,77.2
Ceacam9 (GeneID 26368),3,81.1,74.4
Vps11 (GeneID 71732),1,93.8,113
Vps11 (GeneID 71732),2,68.2,102
Pxt1 (GeneID 69307),1,84.8,75.4
Pxt1 (GeneID 69307),2,30.2,39.8
Pxt1 (GeneID 69307),3,66.2,88.8
Prss32 (GeneID 69814),1,118,121
Prss32 (GeneID 69814),2,30.6,56.6
Prss32 (GeneID 69814),3,55.8,71.4
Brpf1 (GeneID 78783),1,63.8,63.8
Brpf1 (GeneID 78783),2,73.2,80.1
Brpf1 (GeneID 78783),3,91.6,99.4
Kdm5b (GeneID 75605),1,58.3,88.4
Kdm5b (GeneID 75605),2,55.9,61.2
Kdm5b (GeneID 75605),3,80.8,98.3

5 consecutive reagents from above:
target gene,reagent,"GFP, % of control","viability (ATP), % of control"
Pcdhga2 (GeneID 93710),3,80.7,66.2
Ptn (GeneID 19242),1,0.00754,113
Ptn (GeneID 19242),2,84.7,79.7
Cmklr1 (GeneID 14747),1,135 (active),66.5
Cmklr1 (GeneID 14747),2,50.9,63.7
